Measurements published in PMC12040169 (PLOS Biology, 2025).
The list shows a part of the results.

The compounds below were run on T1, CTL2-GFP (C. trachomatis L2/434/Bu, GFP-expressing). Conditions: bulk GFP, single well; 28.5 h, 10 µM; inhibitor.
T1 construct: L2/434/Bu, GFP-expressing
Set-up: species or system HeLa; Intracellular C. trachomatis growth in HeLa cells, bulk GFP fluorescence relative to DMSO

| SMILES | % of control remaining |
| --- | --- |
| CC(NC(=O)c1ccccc1Br)c1nnc(SCc2ccc([N+](=O)[O-])cc2)n1C (stereo not drawn) [CBK267810] | 85.9425% |
| CC1CC(C)CN(C(=O)CN2C(=O)N3CCN=C3c3ccccc32)C1 (stereo not drawn) [CBK283960] | 108.198% |
| CN1C[C@@H](NC(=O)c2cccnc2)C[C@H]1c1nc(-c2cccnc2)no1 [CBK288857] | 107.062% |
| COc1cc(Nc2cccc(-c3cccc(NC(C)=O)c3)n2)cc(OC)c1OC [CBK037698] | 92.8172% |
| COc1ccc(OC(C)C(=O)Nc2ccc(C(=O)O)cc2)cc1 (stereo not drawn) [CBK263622] | 97.6799% |
| CCOc1ccc(CN2CCN(CC(=O)Nc3cc(C)on3)CC2)cc1 [CBK306116] | 86.3017% |
| COc1ccc(N2C(=O)CC(N3CCN(c4ccc(S(=O)(=O)N5CCCC5)cc4)CC3)C2=O)cc1 (stereo not drawn) [CBK268851] | 125.946% |
| CC#CC(=O)N1CCCC(Cc2ccc(F)cc2F)(C(=O)OCC)C1 (stereo not drawn) [CBK307051] | 103.959% |
| COCC1CCN(C(=O)Nc2ccc(F)c(N3CCCNC3=O)c2)C1 (stereo not drawn) [CBK305487] | 117.925% |
| CSc1ccc(-c2nc(NC(=O)C(C)C)cc3cccnc23)cc1 [CBK081262] | 96.4476% |
| Cc1cc(C2CCCCCN2C(=O)c2c(C)noc2C)on1 (stereo not drawn) [CBK284844] | 99.5718% |
| COc1cccc([C@H]2CN(C(=O)c3ccccc3)[C@@H]3CCN(Cc4cccs4)C[C@H]23)c1 [CBK285609] | 88.8488% |
| Cc1ccc(S(=O)(=O)Nc2ccc(Nc3cc(-c4cccc([N+](=O)[O-])c4)ncn3)cc2)cc1 [CBK090983] | 150.403% |
| OC1(c2ccccc2)CCN(Cc2cncn2Cc2ccccc2)C1 (stereo not drawn) [CBK282809] | 85.1619% |
| CC(C)(CO)CNC(=O)c1cnc(-c2ccccc2)c(-c2ccncc2)c1 [CBK036734] | 117.047% |
| COc1ccc(C(C)C)cc1-c1cncc(NCCc2c[nH]c3ccccc23)n1 [CBK065174] | 152.95% |
| CCOC(=O)C1CCCN(Cc2nnsc2Cl)C1 (stereo not drawn) [CBK304848] | 102.371% |
| CC(C)[C@@H](CO)Nc1nccnc1-c1ccc(CN)cc1 [CBK036640] | 221.255% |
| CNC(=O)C1(Cc2ccc(-c3ccccc3)cc2)CCN(C(=O)c2cccc(OC)c2)CC1 [CBK285788] | 124.125% |
| CC(Oc1ccc(Cl)cc1Cl)C(=O)NCCc1cccc(Cl)c1 (stereo not drawn) [CBK265489] | 135.323% |
| Nc1ccc(-c2nnc(SCC(=O)Nc3ccc(Br)cc3F)n2-c2ccccc2)cc1 [CBK267175] | 170.062% |
| CC(=O)Nc1ccc(S(=O)(=O)Nc2cc(C)c(-n3nc4ccccc4n3)cc2O)cc1 [CBK268382] | 158.014% |
| Clc1ccc(COc2cc(N3CCCN(Cc4ccccc4-c4ccccc4)CC3)ncn2)cc1Cl [CBK083781T] | 75.0174% |
| NC(=O)Cn1cc(C(=O)c2ccncc2)c(=O)c2cc(Cl)ccc21 [CBK288584] | 127.966% |
| N#Cc1ccc(NC(=O)CSc2cnn[nH]2)cc1 [CBK269931] | 127.796% |
| CCOC(=O)c1[nH]c2ccccc2c1NS(=O)(=O)Cc1ccccc1 [CBK047413] | 145.035% |

Compounds shown so far containing a carbonyl joined to an NH by a bond outside any ring, in the order listed:

| SMILES | % of control remaining |
| --- | --- |
| CC(NC(=O)c1ccccc1Br)c1nnc(SCc2ccc([N+](=O)[O-])cc2)n1C (stereo not drawn) [CBK267810] | 85.9425% |
| CN1C[C@@H](NC(=O)c2cccnc2)C[C@H]1c1nc(-c2cccnc2)no1 [CBK288857] | 107.062% |
| COc1cc(Nc2cccc(-c3cccc(NC(C)=O)c3)n2)cc(OC)c1OC [CBK037698] | 92.8172% |
| COc1ccc(OC(C)C(=O)Nc2ccc(C(=O)O)cc2)cc1 (stereo not drawn) [CBK263622] | 97.6799% |
| CCOc1ccc(CN2CCN(CC(=O)Nc3cc(C)on3)CC2)cc1 [CBK306116] | 86.3017% |
| COCC1CCN(C(=O)Nc2ccc(F)c(N3CCCNC3=O)c2)C1 (stereo not drawn) [CBK305487] | 117.925% |
| CSc1ccc(-c2nc(NC(=O)C(C)C)cc3cccnc23)cc1 [CBK081262] | 96.4476% |
| CC(C)(CO)CNC(=O)c1cnc(-c2ccccc2)c(-c2ccncc2)c1 [CBK036734] | 117.047% |
| CNC(=O)C1(Cc2ccc(-c3ccccc3)cc2)CCN(C(=O)c2cccc(OC)c2)CC1 [CBK285788] | 124.125% |
| CC(Oc1ccc(Cl)cc1Cl)C(=O)NCCc1cccc(Cl)c1 (stereo not drawn) [CBK265489] | 135.323% |
| Nc1ccc(-c2nnc(SCC(=O)Nc3ccc(Br)cc3F)n2-c2ccccc2)cc1 [CBK267175] | 170.062% |
| CC(=O)Nc1ccc(S(=O)(=O)Nc2cc(C)c(-n3nc4ccccc4n3)cc2O)cc1 [CBK268382] | 158.014% |
| NC(=O)Cn1cc(C(=O)c2ccncc2)c(=O)c2cc(Cl)ccc21 [CBK288584] | 127.966% |
| N#Cc1ccc(NC(=O)CSc2cnn[nH]2)cc1 [CBK269931] | 127.796% |

Additional entries.

| SMILES | % of control remaining |
| --- | --- |
| c1ccc2cc(CCN3CCN(c4nccnc4OCCN4CCOCC4)CC3)ccc2c1 [CBK082911T] | 116.748% |
| CN(C)CCCN1C(=O)C(O)=C(C(=O)c2ccc(F)cc2)C1c1ccco1 (stereo not drawn) [CBK264456] | 119.203% |
| CS(=O)(=O)N1CC2(CCN(Cc3ncc[nH]3)CC2)c2ccccc21 [CBK126680] | 128.451% |
| O=C(Nc1ccc(F)cc1)c1c(NS(=O)(=O)Cc2ccccc2[N+](=O)[O-])sc2c1CCCC2 [CBK028654] | 107.974% |
| COC(=O)[C@@H](C)NC(=O)[C@H]1CN(S(=O)(=O)c2ccccc2)CCN1C(C)=O [CBK289626] | 142.98% |
| CCN1C(=O)c2ccccc2C(=O)[C@@]2(C)CN(C(C)C)C[C@@H]12 [CBK283480] | 99.2918% |
| Cc1ccc2c(c1)cc(C(=O)N1CCCC(C)(C(=O)NC3CCCC3)C1)n2C (stereo not drawn) [CBK286076] | 92.3414% |
| COCC(=O)N1CCN2C(=O)c3ccc(Cl)cc3NC(=O)[C@H]2C1 [CBK289588] | 120.02% |
| COc1ccc(C(=O)Nc2ccc(C3c4ccsc4CCN3C(C)=O)cc2)cc1 (stereo not drawn) [CBK286465] | 178.475% |
| COc1ccc(C(=O)N2CC[C@H]3CC(=O)N(CCNC(C)=O)CC[C@H]3C2)cc1 [CBK288784] | 131.646% |
| CCOC(=O)Cc1csc(SC(C)C(=O)N2CCNC2=O)n1 (stereo not drawn) [CBK304551] | 90.6764% |
| O=C(O)/C=C\C(=O)NCC(=O)O [CBK260989] | 104.536% |
| CCn1c(C)nnc1SCCNc1cc(C(C)C)nc2ccnn12 [CBK306829] | 117.331% |
| Cc1ccc(-c2cncc(NCc3cccs3)n2)cc1C [CBK065967] | 138.045% |
| OCCNCCOc1ccc(Cl)cc1Br [CBK265083G] | 104.453% |
| Cc1cc(COc2cc(C(F)(F)F)ccn2)no1 [CBK115787] | 151.774% |
| Cc1cccc(N/C=C(/C#N)c2nc(-c3ccc4c(c3)OCO4)cs2)c1C [CBK263013] | 108.978% |
| OC(CN1CCN(Cc2ccc3c(c2)OCO3)CC1)C(F)(F)F (stereo not drawn) [CBK074833] | 85.1341% |
| Cc1ccc(SCC(=O)NCc2nc(-c3ccccc3)no2)cc1 [CBK269474] | 129.499% |
| Cc1cc(=O)oc2cc(OCC(=O)Nc3ccc(S(=O)(=O)O)cc3)ccc12 [CBK301204N] | 119.571% |
| O=C(C1CCC1)N1CCN(c2ccccn2)CC1 [CBK026058] | 98.8745% |
| NC(=O)C1CCN(C(=O)CSc2nc3ccccc3o2)CC1 [CBK265930] | 112.869% |
| O=C(C1CC1)N1CCC(c2nc(Cc3cccs3)no2)C1 (stereo not drawn) [CBK282980] | 98.8545% |
| Cc1nc2c(C(=O)NCC(F)(F)F)cnn2c(C)c1Cc1cccc(F)c1 [CBK162117] | 93.21% |
| CCOC(=O)[C@@]12CC=CCN(C(=O)c3cccnc3)[C@@H]1CCC2 [CBK284575] | 143.985% |
| COc1ccc2[nH]c3c(c2c1)CCNC31CCCN(CCc2ccc(F)cc2)C1 (stereo not drawn) [CBK039246] | 95.2434% |

Two entries drawn at random from those above, as already listed:

| SMILES | % of control remaining |
| --- | --- |
| O=C(C1CCC1)N1CCN(c2ccccn2)CC1 [CBK026058] | 98.8745% |
| NC(=O)C1CCN(C(=O)CSc2nc3ccccc3o2)CC1 [CBK265930] | 112.869% |

(further entries)

| SMILES | % of control remaining |
| --- | --- |
| Cc1cc(NC(=O)NC2CCOc3ccccc32)no1 (stereo not drawn) [CBK304581] | 127.92% |
| Cc1cc(CN(C)Cc2ccc(-n3ccnc3C)cc2)n[nH]1 [CBK281989] | 152.47% |
| O=C(CSS(=O)(=O)O)NCc1ccccc1 [CBK260897N] | 109.06% |
| CCCN(CCc1ccc(C(F)(F)F)cc1)C1Cc2cc(OC)c(OC)cc2C1 [CBK017829C] | 55.4143% |
| Cc1nccn1CCCn1cncc1-c1cnn(C2CCCCC2)c1 [CBK281816] | 115.255% |
| O=c1cc(CN2CCN(c3ccccc3)CC2)occ1O [CBK288392] | 137.268% |
| COc1ccc(C(CNCC(O)COc2cccc3c2CCCC3)c2ccccc2)cc1 (stereo not drawn) [CBK028144] | 125.5% |
| CCN(CC)C(=O)CNS(=O)(=O)c1ccc(C)cc1 [CBK034491] | 144.952% |
| Cc1nc[nH]c1CN(Cc1cccc(F)c1)Cc1ccco1 [CBK282493] | 115.785% |
| Cc1ccc(C2(O)CCN(CCNC(=O)c3cccs3)CC2)cc1 [CBK283322] | 106.383% |
| Cc1ccc2cc(COc3cccnc3[N+](=O)[O-])c(Cl)nc2c1C [CBK297113] | 96.3565% |
| O=C(c1ccc(OC(F)(F)F)cc1)N1CCC2(CCN(C(=O)c3cc(F)c(F)cc3F)C2)C1 (stereo not drawn) [CBK131384] | 101.673% |
| CS(=O)(=O)Nc1ncc(-c2ccco2)cc1C(=O)NCc1ccc(F)cc1 [CBK076479] | 91.0802% |
| N#CCCN(C1CCCCC1)S(=O)(=O)c1cccc2nsnc12 [CBK009093] | 121.781% |
| O=S(=O)(c1ccc(Cl)cc1)N1CCN(c2cc(-c3ccco3)ncn2)CC1 [CBK091161] | 203.646% |
| CN(C)S(=O)(=O)Nc1ccc2[nH]ccc2c1 [CBK156321] | 112.076% |
| O=C1CN(Cc2cnn(-c3ccc(F)cc3)c2)CCN1C1CCCC1 [CBK281926] | 158.229% |
| CCC12CN3CC(CC)(CN(C1)C3c1ccccc1[N+](=O)[O-])C2=O (stereo not drawn) [CBK264604] | 106.268% |
| Cc1nn(CCNC(=O)C2CC(=O)N(Cc3ccccn3)C2)c(C)c1Cl (stereo not drawn) [CBK307316] | 122.389% |
| O=C(Nc1cccc(C(F)(F)F)c1)Nc1cccc(S(=O)(=O)N2CCOCC2)c1 [CBK267043] | 38.7983% |
| Cc1ccc(C(C)C(=O)N2CCC(C(=O)c3cccnc3)CC2)cc1 (stereo not drawn) [CBK283516] | 134.728% |
| CC(C)c1n[nH]c(C2CN(Cc3nc4c(F)cccc4[nH]3)CCO2)n1 (stereo not drawn) [CBK305225] | 104.522% |
| CC(C)c1nnc(NS(=O)(=O)c2ccc(N)cc2)s1 [CBK050163] | 35.8221% |
| CN1CCCN(c2nccnc2-c2cccs2)CC1 [CBK088823] | 109.863% |
| O=c1oc(-c2ccco2)nn1Cc1ccc([N+](=O)[O-])cc1 [CBK295593] | 135.404% |
| CC(NCCN1CCOCC1)=C1C(=O)c2ccccc2C1=O [CBK262691] | 130.256% |
